Assay results as given in article PMC7819943, “Rice protein-binding microarrays: a tool to detect cis-acting elements near promoter regions in rice”.
This is one part of the list.

Sequences of proteins named here, by UniProt entry; tags and fusion partners are left off.
UniProt Q0JBA9, entry or part of it: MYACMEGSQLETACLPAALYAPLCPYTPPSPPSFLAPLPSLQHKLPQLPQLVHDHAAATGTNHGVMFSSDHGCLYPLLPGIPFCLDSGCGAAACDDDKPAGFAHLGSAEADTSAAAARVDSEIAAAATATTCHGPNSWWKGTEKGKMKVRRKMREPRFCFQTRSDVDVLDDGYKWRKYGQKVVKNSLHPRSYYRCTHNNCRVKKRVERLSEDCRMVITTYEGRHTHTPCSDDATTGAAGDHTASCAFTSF

Target: OsWRKY34 (Oryza sativa, UniProt Q0JBA9 1-250)
Experiment: protein-binding microarray (RPBM); PBS, 2% BSA, 51.3 ng/ul salmon testes DNA, 50 uM zinc acetate, 200 nM TF, 25 C, 1 h; high values mean tight binding
Conditions: protein: recombinant; tags: N-terminal polyhistidine and DsRed monomer fusion (pET32a); label: CyDye5-dUTP incorporated in the synthesized complementary strand; 3' TTTTT single-stranded linker to array surface; dsDNA, one strand shown
In short: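 An Axon 4000B scanner gave the binding signal as per-feature fluorescence intensity in arbitrary units. This followed washing of a custom Agilent array that had been incubated for 1 h at 25 °C with 200 nM protein in PBS, 2% BSA, salmon testes DNA and 50 µM zinc acetate. The proteins were transcription factors fused at the N-terminus to polyhistidine and DsRed, expressed in E. coli BL21-CodonPlus and purified on Ni–NTA.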

Row | Sequence | binding signal
1 | CATCCTCAATTAATTGGACATTCTATCTGTACGTGTACATCGGAGTCACCTAGTGCAG | 9460 fluorescence intensity (a.u.)
2 | GGTTTTGTTAGTTCAAGGACGTCCGGTATCTGGTTTTGCGCGGAGTCACCTAGTGCAG | 8160 fluorescence intensity (a.u.)
3 | TGGAGGGGTTTTCAAAATATCCGGTATCGCGGTTGAGTGACGGAGTCACCTAGTGCAG | 11800 fluorescence intensity (a.u.)
4 | GATTCCACTGCCTGCCAAGTCCATACCTTTGGGCCGGCCCCGGAGTCACCTAGTGCAG | 8030 fluorescence intensity (a.u.)
5 | CCCTAGCAGATGACCGCCTTCCGTACAACATTAACTCCACCGGAGTCACCTAGTGCAG | 9740 fluorescence intensity (a.u.)
6 | AGTATTTTATTTCTTACTACCCACTTTATATGCACATTGTCGGAGTCACCTAGTGCAG | 8400 fluorescence intensity (a.u.)
7 | CATCTGCCTCGCTTTCCCACACTAACGCCAACCCATCTCCCGGAGTCACCTAGTGCAG | 13100 fluorescence intensity (a.u.)
8 | CTAGTTCATGTGCCACACCTATTTTTTTTTTCGGTCGTCCCGGAGTCACCTAGTGCAG | 9380 fluorescence intensity (a.u.)
9 | GCCTCTCCTCTCGGTCTCGGGTCGTTTCTTTCTTGTCCACCGGAGTCACCTAGTGCAG | 8660 fluorescence intensity (a.u.)
10 | CACAAAATTCCAACTTTTCCGTCACATCATTTTATTTTTACGGAGTCACCTAGTGCAG | 8610 fluorescence intensity (a.u.)
11 | GAGGCGGAGAGCGAGAGGCGAGAGGGGACTGGGGAGGGGACGGAGTCACCTAGTGCAG | 9080 fluorescence intensity (a.u.)
12 | AGGGGCTGTTTGGTTTCCACCTTGTCACATCGGATGTTTACGGAGTCACCTAGTGCAG | 9140 fluorescence intensity (a.u.)
13 | ACGGCACATATCTCACAATCTGATACCCAGCGGCCACAAACGGAGTCACCTAGTGCAG | 8540 fluorescence intensity (a.u.)
14 | ACCCCACACTCAATCCTTACGAAATCCCATTTGATTTTGTCGGAGTCACCTAGTGCAG | 9150 fluorescence intensity (a.u.)
15 | ACTTCCAACTCCGCCGCCCATTCAAAATCTCCGCCACCTCCGGAGTCACCTAGTGCAG | 9040 fluorescence intensity (a.u.)
16 | GTCCCGATCCGATACAGTATGTCTTTCGCCGCCGCCTCTGCGGAGTCACCTAGTGCAG | 9350 fluorescence intensity (a.u.)
17 | CATGGATATCTATAGCTCTCTAATCCATTGCCTCGTTTTTCGGAGTCACCTAGTGCAG | 9380 fluorescence intensity (a.u.)
18 | TATGCATGACTTCTTTTTATCAGCTGTCCGATCTATATAACGGAGTCACCTAGTGCAG | 9530 fluorescence intensity (a.u.)
19 | AATTTGACACGAAAGCCTTCCTGTGCCTTTTTATGGTAATCGGAGTCACCTAGTGCAG | 8920 fluorescence intensity (a.u.)
20 | ACACCACTCTCTCGTTCTCTCTCTCTCTCCCCGTCTTCCTCGGAGTCACCTAGTGCAG | 9440 fluorescence intensity (a.u.)
21 | CCATCAATCACCCCATCGATGCTTCTCCACCGGAGAAGTCCGGAGTCACCTAGTGCAG | 8690 fluorescence intensity (a.u.)
22 | TGTATATAGGAAGTGTCTTTGCTCCATCTTACCTCCATTTCGGAGTCACCTAGTGCAG | 9000 fluorescence intensity (a.u.)
23 | CTTCCAACACATTCTTAAGATTAACAAAGTCACTATTTTTCGGAGTCACCTAGTGCAG | 8330 fluorescence intensity (a.u.)

2 entries from above, with tabs.
Row	Sequence	binding signal
3	TGGAGGGGTTTTCAAAATATCCGGTATCGCGGTTGAGTGACGGAGTCACCTAGTGCAG	11800 fluorescence intensity (a.u.)
7	CATCTGCCTCGCTTTCCCACACTAACGCCAACCCATCTCCCGGAGTCACCTAGTGCAG	13100 fluorescence intensity (a.u.)
